Laboratory results reported in article PMC9972910.
No constants are given. Whether binding was seen depends on the method and setting. For some of these results: Binding seen in cells or lysates may run through a third protein. Some binding calls cover weakened binding; strength is not graded here.

Columns and labels:
[1] = target: T1, LptB2FG complex (Escherichia coli) (UniProt P0A9V1+P0AF98+P0ADC6); experiment: SEC-MALS; purified complex in DDM (40 μL at 8 μM) injected with 50 μM ΔTM LptC or LptAm, Superdex S200, 20 mM Tris, 150 mM NaCl, 0.05% DDM, 25°C; both purified
T1 sequence 1: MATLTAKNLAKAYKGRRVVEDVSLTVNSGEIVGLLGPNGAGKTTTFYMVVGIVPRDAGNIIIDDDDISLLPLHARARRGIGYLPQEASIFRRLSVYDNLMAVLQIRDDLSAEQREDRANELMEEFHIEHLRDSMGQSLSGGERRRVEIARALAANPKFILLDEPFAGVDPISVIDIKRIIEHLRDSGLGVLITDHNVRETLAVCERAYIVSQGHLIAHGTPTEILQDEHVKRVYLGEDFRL
T1 sequence 2: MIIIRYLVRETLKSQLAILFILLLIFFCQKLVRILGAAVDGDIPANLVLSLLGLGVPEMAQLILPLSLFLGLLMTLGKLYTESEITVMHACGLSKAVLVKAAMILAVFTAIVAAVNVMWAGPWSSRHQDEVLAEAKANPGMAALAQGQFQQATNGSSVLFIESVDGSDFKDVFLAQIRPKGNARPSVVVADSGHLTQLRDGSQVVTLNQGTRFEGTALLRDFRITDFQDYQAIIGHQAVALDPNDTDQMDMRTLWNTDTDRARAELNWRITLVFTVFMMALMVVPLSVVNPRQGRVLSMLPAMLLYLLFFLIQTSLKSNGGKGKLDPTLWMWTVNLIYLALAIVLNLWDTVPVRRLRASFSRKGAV
T1 sequence 3: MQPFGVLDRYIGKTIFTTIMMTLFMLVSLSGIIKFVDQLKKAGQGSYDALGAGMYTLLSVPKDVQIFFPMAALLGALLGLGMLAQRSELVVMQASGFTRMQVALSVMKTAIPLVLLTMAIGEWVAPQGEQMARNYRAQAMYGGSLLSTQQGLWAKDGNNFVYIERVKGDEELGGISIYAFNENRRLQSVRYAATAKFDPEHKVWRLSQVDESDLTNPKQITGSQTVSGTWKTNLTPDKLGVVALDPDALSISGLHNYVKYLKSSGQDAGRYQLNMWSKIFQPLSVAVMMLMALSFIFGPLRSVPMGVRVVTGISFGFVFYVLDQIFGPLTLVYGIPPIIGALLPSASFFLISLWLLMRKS

[2] = target: T2, LptB2F^R212GG complex (Escherichia coli) (UniProt P0A9V1+P0AF98+P0ADC6); experiment: as above
T2 sequence 1: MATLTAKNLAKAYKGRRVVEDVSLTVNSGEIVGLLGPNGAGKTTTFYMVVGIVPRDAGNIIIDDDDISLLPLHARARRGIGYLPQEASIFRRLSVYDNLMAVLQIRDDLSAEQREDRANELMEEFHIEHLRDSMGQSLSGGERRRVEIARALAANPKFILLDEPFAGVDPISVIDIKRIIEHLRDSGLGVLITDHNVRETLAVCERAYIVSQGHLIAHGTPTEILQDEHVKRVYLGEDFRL
T2 sequence 2: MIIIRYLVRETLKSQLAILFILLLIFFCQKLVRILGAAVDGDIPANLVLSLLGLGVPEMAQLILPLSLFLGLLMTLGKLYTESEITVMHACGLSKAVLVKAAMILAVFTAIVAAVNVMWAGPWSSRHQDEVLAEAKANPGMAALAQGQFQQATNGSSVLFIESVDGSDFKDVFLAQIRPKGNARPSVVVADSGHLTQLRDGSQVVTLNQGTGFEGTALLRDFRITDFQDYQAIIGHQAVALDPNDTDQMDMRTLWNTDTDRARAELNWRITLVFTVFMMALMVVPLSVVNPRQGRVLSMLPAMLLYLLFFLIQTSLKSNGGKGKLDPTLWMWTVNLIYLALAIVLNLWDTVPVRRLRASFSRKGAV
T2 sequence 3: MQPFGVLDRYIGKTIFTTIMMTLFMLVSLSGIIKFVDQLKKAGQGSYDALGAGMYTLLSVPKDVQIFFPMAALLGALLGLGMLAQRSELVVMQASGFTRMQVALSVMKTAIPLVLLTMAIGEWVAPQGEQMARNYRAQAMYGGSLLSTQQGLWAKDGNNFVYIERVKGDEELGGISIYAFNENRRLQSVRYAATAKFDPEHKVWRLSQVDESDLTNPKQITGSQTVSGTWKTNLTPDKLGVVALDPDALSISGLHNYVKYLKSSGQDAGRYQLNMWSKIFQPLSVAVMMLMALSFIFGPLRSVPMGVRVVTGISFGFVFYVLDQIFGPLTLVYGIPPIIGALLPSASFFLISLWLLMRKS

[3] = target: T3, LptF (Escherichia coli), P0AF98; experiment: cross-linking; in vivo site-specific UV photo-cross-linking with pBPA in LptF, E. coli AM604 whole-cell extracts, immunoblot with anti-LptA; no LptC overexpression; conditions: remark: other sources report otherwise
T3 chain: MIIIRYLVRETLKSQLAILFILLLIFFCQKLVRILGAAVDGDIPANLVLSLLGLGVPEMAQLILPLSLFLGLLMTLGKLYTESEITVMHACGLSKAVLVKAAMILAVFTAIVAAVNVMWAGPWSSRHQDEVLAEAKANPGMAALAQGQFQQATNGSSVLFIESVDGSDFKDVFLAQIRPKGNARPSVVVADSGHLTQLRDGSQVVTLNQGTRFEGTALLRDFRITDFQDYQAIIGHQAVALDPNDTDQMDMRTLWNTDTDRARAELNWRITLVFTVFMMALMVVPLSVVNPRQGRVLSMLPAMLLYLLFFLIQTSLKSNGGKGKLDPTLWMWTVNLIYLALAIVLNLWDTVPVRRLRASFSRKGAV

[4] = target: T3, LptF (Escherichia coli), P0AF98; experiment: cross-linking; in vivo site-specific UV photo-cross-linking with pBPA in LptF, E. coli AM604 whole-cell lysates, immunoblot; LptC overexpressed from the pBAD/HisA vector (araBp promoter); conditions: remark: other sources report otherwise

B1: soluble version of LptC lacking the TM (domain or fragment, UniProt P0ADV9 24-191)
chain: MAEKDDTAQVVVNNNDPTYKSEHTDTLVYNPEGALSYRLIAQHVEYYSDQAVSWFTQPVLTTFDKDKIPTWSVKADKAKLTNDRMLYLYGHVEVNALVPDSQLRRITTDNAQINLVTQDVTSEDLVTLYGTTFNSSGLKMRGNLRSKNAELIEKVRTSYEIQNKQTQP
B1 was tested, and the binding [1] was “binds” and the binding [2] was “binds”.

B2: LptA, P0ADV1 28-185 (protein)
chain: VTGDTDQPIHIESDQQSLDMQGNVVTFTGNVIVTQGTIKINADKVVVTRPGGEQGKEVIDGYGKPATFYQMQDNGKPVEGHASQMHYELAKDFVVLTGNAYLQQVDSNIKGDKITYLVKEQKMQAFSDKGKRVTTVLVPSQLQDKNNKGQTPAQKKGN
For B2, the binding [3] was “no binding” and the binding [4] was “no binding”.
